No constants are given. Whether binding was seen depends on the method and setting. Some results given as binding are weak or reduced against the parent protein; the word gives no strength.
Columns and labels:
[1] = target: mNRP2A peptide (biotinylated) (mouse); assay: BLI, peptide on sensor, 50 nM antibody
[2] = target: NRP2A peptide (biotinylated) (human); assay: BLI, peptide on sensor, 50 nM antibody
[3] = target: NRP2A peptide (biotinylated) (human); assay: BLI, peptide on sensor
[4] = target: human NRP2a v2 expressed on Expi293F cells (human) (UniProt O60462); assay: flow cytometry, Expi293F cells transfected with the target, fluorescent anti-mouse secondary; MFI signal relative to mock-transfected cells
[5] = target: NRP2A peptide (biotinylated) (human); assay: BLI, isoform peptide on sensor, 50 nM antibody
[6] = target: NRP2A peptide (biotinylated) (human); assay: peptide binding (Examples 4 and 5)
[7] = target: mNRP2A peptide (biotinylated) (mouse); assay: peptide ELISA
[8] = target: NRP2A peptide (biotinylated) (human); assay: peptide ELISA
[9] = target: mNRP2A peptide (biotinylated) (mouse); assay: BLI, mouse peptide on sensor, 50 nM antibody

The chains behind the UniProt entries cited, without tags or fusion partners. Where a name states a change or a piece, a line headed by the entry shows the natural chain unless it says otherwise.
UniProt O60462: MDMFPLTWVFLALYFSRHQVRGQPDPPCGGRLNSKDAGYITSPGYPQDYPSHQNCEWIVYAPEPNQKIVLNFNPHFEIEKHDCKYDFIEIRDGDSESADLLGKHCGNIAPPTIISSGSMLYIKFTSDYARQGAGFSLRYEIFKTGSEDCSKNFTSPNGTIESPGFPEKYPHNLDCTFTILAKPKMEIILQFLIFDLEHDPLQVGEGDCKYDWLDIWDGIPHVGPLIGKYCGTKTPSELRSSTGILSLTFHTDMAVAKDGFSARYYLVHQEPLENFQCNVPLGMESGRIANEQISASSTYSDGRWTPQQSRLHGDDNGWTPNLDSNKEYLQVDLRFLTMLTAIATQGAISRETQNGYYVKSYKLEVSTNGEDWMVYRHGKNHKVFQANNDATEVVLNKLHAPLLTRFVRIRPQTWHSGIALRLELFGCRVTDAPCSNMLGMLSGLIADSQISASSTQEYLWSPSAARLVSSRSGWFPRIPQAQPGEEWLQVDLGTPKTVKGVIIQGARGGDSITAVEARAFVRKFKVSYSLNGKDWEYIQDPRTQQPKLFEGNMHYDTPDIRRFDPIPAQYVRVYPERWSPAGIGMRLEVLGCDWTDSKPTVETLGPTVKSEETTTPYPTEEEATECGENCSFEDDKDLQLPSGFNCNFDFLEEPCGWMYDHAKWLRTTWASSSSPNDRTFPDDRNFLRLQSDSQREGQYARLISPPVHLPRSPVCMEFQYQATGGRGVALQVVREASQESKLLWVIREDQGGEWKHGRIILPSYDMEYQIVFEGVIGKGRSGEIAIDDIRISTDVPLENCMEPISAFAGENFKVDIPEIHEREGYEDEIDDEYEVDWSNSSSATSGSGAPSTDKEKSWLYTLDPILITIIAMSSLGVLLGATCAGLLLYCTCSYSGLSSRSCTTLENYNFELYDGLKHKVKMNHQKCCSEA

binding [1]: binds
binding [2]: binds
binding [3]: binds
binding [4]: binds
binding [5]: binds
binding [6]: binds
binding [7]: binds
binding [8]: binds
binding [9]: binds
B1: aNRP2-409v3 (antibody, V domains shown)
VH: EVQFVETGGGLVQPKGSLKLSCAASGFTFNTNAMNWVRQAPGKGLEWVARIRTKSNNYATYYADSVKDRFTISRDDSQNILYLQMNNLKTEDTAMYYCVTLDSSGYVWFAYWGQGTLVTVSA
VL: DIQMTQSPSSLSASLGERVSLTCRASQDIGSRLNWLQQEPDGTIKRLIYATSSLDSGVPKRFSGSRSGSDYSLTISSLESEDFVDYYCLQYASSPYTFGGGTKLEIK

From patent US20240417476A1
